# The other results are listed elsewhere or left out. The data scatter; read single values as rough.
# Sequences of proteins named here, by UniProt entry; tags and fusion partners are left off. A change or cut given only in a name is not applied to a line headed by its entry. Residues count along the entry.
# UniProt Q99592: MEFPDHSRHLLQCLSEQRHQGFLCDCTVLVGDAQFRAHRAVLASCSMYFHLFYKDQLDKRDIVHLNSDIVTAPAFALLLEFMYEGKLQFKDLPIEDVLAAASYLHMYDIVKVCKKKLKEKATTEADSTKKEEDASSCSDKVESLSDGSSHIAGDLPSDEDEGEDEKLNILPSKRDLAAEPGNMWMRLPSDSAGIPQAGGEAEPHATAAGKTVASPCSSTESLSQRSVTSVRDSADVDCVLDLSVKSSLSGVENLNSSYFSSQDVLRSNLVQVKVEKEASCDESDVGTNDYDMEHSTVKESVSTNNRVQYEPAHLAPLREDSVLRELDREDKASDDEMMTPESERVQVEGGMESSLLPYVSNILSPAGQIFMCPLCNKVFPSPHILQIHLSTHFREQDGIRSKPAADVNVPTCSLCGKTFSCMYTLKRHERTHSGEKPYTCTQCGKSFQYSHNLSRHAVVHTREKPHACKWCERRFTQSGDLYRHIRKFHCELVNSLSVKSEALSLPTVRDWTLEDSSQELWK
# UniProt O95625: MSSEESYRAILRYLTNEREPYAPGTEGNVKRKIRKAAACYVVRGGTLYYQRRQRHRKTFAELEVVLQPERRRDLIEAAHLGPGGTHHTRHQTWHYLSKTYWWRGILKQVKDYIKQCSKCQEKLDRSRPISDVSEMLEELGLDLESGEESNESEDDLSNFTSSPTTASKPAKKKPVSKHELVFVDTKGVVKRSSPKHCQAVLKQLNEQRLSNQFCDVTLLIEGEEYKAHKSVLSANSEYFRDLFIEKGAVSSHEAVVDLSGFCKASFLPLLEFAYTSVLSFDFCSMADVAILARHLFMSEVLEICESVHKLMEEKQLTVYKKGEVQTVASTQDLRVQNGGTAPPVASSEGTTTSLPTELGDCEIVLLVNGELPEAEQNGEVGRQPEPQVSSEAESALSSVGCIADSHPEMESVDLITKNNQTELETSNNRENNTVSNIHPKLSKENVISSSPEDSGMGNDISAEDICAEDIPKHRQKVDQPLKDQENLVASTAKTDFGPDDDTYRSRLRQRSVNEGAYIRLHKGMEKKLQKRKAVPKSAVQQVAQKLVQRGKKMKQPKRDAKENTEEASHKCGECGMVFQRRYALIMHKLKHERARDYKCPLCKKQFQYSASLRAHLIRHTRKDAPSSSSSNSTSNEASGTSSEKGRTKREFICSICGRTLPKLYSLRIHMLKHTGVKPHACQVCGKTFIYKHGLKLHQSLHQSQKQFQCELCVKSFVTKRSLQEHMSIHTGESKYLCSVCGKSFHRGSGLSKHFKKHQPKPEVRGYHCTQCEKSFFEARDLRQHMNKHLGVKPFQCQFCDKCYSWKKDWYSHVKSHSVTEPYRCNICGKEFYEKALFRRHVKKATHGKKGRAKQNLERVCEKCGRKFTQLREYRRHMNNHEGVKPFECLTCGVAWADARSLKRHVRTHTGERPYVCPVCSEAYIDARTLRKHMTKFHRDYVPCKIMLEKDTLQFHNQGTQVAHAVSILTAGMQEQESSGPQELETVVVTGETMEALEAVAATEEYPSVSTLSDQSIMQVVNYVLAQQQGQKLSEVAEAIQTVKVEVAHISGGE
# UniProt O75132: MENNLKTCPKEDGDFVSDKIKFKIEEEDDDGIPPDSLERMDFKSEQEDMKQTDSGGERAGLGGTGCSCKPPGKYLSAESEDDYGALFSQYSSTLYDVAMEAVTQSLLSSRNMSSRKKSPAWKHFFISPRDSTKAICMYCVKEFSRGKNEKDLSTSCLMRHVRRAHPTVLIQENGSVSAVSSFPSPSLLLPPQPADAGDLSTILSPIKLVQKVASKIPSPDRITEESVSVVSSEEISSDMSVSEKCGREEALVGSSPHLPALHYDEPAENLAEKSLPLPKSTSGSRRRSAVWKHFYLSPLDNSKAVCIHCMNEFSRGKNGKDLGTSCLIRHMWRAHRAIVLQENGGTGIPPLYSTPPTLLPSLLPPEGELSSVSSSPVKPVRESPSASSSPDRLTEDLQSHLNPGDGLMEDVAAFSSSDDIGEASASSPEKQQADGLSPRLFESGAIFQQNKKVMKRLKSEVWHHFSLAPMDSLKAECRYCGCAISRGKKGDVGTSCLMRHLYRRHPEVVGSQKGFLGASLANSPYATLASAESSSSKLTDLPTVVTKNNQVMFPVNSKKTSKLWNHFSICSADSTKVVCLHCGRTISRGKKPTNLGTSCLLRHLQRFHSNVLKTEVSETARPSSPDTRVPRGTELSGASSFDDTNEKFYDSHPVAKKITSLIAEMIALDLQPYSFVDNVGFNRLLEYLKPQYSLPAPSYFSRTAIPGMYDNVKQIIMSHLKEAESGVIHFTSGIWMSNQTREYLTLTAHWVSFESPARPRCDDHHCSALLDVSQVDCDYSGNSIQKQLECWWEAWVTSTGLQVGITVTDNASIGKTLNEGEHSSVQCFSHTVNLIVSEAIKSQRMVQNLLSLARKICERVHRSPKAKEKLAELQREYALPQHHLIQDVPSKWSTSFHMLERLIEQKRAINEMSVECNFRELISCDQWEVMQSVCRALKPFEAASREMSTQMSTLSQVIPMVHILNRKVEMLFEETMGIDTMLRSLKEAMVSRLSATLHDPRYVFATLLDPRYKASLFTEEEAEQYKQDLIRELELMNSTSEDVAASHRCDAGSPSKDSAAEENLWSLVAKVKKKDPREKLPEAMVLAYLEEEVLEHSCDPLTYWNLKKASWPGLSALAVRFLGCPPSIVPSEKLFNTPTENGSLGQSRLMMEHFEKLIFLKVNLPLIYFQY
# UniProt Q8IWB7: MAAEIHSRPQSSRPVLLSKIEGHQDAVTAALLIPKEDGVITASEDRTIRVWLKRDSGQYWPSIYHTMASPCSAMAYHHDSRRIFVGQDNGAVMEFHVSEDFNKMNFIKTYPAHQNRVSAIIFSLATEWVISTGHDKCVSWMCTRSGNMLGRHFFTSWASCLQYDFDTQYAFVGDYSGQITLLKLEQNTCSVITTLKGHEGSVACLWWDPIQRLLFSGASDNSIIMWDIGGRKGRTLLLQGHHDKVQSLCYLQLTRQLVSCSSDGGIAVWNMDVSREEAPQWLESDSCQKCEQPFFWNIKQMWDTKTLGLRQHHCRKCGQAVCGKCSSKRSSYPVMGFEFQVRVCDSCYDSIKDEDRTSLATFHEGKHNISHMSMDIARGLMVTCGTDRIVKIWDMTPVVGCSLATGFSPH
# UniProt A8MPS7: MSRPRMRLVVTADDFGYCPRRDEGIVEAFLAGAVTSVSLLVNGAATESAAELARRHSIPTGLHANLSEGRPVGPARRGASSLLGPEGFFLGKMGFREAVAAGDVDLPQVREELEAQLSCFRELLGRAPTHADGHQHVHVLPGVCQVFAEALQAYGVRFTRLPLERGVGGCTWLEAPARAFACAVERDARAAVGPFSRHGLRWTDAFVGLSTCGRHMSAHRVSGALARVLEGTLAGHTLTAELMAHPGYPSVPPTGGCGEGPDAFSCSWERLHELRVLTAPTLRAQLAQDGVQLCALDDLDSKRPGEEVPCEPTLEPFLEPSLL
# UniProt O14980: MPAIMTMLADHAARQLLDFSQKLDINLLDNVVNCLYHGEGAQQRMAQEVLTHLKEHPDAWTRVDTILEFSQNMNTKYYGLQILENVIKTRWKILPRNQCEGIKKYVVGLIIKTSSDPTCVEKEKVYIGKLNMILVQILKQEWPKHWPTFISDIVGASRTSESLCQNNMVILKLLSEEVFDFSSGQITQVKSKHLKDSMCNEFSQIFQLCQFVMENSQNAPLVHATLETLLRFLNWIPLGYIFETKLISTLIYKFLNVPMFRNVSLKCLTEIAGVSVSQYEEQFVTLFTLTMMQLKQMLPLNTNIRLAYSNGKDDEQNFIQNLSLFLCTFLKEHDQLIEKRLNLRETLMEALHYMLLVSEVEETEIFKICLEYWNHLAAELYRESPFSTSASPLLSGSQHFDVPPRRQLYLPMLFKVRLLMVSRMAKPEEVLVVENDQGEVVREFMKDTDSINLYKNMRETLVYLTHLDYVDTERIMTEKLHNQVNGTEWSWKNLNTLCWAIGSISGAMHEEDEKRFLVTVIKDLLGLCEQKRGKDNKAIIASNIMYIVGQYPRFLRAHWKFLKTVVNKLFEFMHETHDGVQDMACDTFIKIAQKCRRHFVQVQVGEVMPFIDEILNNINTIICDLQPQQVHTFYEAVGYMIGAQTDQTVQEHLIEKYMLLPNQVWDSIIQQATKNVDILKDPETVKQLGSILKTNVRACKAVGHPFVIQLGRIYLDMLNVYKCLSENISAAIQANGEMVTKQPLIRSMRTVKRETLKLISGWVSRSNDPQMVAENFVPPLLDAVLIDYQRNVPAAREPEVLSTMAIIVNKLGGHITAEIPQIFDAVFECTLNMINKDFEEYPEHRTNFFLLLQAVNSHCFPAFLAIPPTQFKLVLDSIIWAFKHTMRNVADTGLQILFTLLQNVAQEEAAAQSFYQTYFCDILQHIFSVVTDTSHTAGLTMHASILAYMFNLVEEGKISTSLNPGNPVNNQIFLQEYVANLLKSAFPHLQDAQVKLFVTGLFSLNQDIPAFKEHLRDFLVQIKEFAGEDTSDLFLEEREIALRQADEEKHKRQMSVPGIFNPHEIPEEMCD
# UniProt Q9H4A3, 531-552: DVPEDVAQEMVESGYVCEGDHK
# UniProt Q7Z5K2, 951-970: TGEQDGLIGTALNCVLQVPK
# UniProt Q9H967: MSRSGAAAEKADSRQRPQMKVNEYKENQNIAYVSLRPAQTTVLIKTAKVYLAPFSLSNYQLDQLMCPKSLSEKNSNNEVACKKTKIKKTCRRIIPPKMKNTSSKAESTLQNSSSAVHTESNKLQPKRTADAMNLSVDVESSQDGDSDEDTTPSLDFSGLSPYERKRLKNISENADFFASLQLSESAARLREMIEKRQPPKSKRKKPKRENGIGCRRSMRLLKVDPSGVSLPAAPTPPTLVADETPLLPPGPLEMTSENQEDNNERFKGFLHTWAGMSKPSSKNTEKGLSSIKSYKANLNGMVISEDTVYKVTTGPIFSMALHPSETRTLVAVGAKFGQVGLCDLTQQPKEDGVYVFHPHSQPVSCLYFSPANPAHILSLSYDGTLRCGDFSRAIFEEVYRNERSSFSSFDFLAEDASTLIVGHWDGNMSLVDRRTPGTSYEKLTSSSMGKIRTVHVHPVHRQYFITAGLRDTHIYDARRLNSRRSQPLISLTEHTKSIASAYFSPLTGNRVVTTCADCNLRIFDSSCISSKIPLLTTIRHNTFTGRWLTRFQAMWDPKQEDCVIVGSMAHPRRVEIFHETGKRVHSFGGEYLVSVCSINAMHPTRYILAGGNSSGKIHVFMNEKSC
# UniProt Q9UNX4: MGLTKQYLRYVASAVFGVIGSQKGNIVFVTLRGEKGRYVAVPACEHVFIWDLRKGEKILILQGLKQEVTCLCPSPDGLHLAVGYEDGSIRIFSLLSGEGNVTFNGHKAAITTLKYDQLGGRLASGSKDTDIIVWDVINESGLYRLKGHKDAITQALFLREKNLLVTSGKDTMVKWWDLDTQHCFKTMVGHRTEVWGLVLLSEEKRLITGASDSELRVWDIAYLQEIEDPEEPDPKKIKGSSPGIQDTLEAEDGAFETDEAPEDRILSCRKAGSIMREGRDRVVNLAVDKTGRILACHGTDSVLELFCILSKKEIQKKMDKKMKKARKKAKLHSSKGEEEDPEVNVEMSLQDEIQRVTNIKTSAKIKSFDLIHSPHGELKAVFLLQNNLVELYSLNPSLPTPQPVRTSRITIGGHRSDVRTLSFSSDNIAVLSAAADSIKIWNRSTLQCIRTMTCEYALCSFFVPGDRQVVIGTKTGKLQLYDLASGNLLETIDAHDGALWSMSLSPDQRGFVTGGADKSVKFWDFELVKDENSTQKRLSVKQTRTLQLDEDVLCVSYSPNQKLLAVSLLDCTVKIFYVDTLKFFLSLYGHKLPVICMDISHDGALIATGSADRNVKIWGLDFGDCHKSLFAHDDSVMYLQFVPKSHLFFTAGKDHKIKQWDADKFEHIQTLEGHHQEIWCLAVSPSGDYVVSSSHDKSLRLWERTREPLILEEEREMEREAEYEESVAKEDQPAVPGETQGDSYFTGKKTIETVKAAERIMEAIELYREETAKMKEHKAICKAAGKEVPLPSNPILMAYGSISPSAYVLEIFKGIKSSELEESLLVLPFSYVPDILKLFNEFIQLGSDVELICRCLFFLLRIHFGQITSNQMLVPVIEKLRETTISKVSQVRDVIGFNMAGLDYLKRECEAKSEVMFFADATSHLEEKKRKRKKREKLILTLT
# Assays:
# [1] = compound: ClCC(=O)N[C@@H]1CCCc2ccccc12; test: log2 mean competition ratio of IA-DTB cysteine labelling (DMSO/compound) (log2 ratio); higher = stronger cysteine engagement by compound; conditions: treatment time: 4 h, cell line lysate: HEK293T
# Protocol: (§1)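 IA-DTB competitive cysteine chemoproteomics in HEK293T RIPA lysate. Lysates were treated with compound 29 or 30 at 50 or 200 µM for 4 h, then IA-DTB (500 µM, 1 h), trypsin-digested, NeutrAvidin-enriched and analysed by diaPASEF. Competition ratio = intensity DMSO / intensity compound (n=4 treated, n=64 DMSO); binding: mean log2 CR ≥ 1 and p ≤ 0.05 plus QC filters. Target is the cysteine site.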
# [2] = compound: ClCC(=O)N[C@H]1CCCc2ccccc12; test: as above; conditions: treatment time: 4 h, cell line lysate: HEK293T
# Protocol: as §1
Target,log2 mean competition ratio ([1]; 50 µM),log2 mean competition ratio ([1]; 200 µM),log2 mean competition ratio ([2]; 50 µM),log2 mean competition ratio ([2]; 200 µM)
YARS1 C519,-0.0997,0.0488,0.158,0.0735
XPR1 C620 (UniProt Q9UBH6),-0.011,0.17,-0.204,-0.272
WDR81 C215 (UniProt Q562E7),0.135,-0.112,0.362,0.0348
XPO4 C54 (UniProt Q9C0E2),-0.0781,-0.00442,-0.106,-0.0188
WDR91 C351 (UniProt A4D1P6),-0.0335,0.00519,-0.4,0.0409
WDFY3 C575 (UniProt Q8IZQ1),0.463,0.125,0.427,0.00153
ZBTB18 C216 (UniProt Q99592),0.0505,-0.168,0.179,-0.226
ZBTB11 C197 (UniProt O95625),0.515,-0.15,0.367,-0.0893
ZBED4 C916 (UniProt O75132),0.0338,0.158,-0.0491,0.0483
WNK2 C1195 (UniProt Q9Y3S1),0.0301,-0.202,0.119,0.254
WDFY1 C287 (UniProt Q8IWB7),-0.243,-0.253,0.341,-0.278
YDJC C294 (UniProt A8MPS7),0.0495,0.101,-0.158,-0.296
ZBED4 C8 (UniProt O75132),0.0388,0.0289,-0.103,-0.0284
YARS1 C501,0.261,-0.003,0.0439,0.0824
ZC3H3 C643 (UniProt Q8IXZ2),-0.105,0.307,0.121,0.342
XPO1 C164 (UniProt O14980),-0.0243,0.0803,0.141,0.111
WDFY3 C16 (UniProt Q8IZQ1),0.111,0.0133,-0.294,0.319
WNK1 C547 (UniProt Q9H4A3),-0.306,-0.107,-0.00112,-0.13
WAPL C964 (UniProt Q7Z5K2),-0.236,0.0691,-0.37,-0.0953
WDR76 C81 (UniProt Q9H967),-0.0313,0.0385,0.0181,0.139
WDR3 C554 (UniProt Q9UNX4),0.0235,-0.0912,0.15,-0.298
WAPL C776 (UniProt Q7Z5K2),-0.0418,-0.0898,-0.225,-0.14
XPO4 C796 (UniProt Q9C0E2),-0.306,-0.325,-0.455,-0.0206
XRCC1 C389,-0.0333,0.228,0.26,0.211

# Looked up above:
# Under log2 mean competition ratio ([2]; 200 µM), ZBED4 C8 (UniProt O75132) is entered as -0.0284
# Under log2 mean competition ratio ([2]; 50 µM), WDFY3 C16 (UniProt Q8IZQ1) is entered as -0.294
